# Assay results reported in PMC2784748.
# By UniProt entry, the sequences of proteins in these tests, tags left out.
# UniProt Q07666: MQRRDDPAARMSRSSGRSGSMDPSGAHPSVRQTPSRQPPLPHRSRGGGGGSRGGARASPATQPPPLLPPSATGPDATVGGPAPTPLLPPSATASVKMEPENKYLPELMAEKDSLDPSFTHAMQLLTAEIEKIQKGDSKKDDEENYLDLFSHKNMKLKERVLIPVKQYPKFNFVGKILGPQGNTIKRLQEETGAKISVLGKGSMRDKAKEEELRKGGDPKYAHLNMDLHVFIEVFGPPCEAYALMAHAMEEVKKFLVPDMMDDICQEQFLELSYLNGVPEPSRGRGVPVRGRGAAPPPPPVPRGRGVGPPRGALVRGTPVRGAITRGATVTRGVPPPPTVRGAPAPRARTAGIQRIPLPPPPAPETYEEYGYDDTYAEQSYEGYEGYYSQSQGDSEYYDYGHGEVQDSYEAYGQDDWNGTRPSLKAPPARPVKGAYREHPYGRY
# UniProt P38159: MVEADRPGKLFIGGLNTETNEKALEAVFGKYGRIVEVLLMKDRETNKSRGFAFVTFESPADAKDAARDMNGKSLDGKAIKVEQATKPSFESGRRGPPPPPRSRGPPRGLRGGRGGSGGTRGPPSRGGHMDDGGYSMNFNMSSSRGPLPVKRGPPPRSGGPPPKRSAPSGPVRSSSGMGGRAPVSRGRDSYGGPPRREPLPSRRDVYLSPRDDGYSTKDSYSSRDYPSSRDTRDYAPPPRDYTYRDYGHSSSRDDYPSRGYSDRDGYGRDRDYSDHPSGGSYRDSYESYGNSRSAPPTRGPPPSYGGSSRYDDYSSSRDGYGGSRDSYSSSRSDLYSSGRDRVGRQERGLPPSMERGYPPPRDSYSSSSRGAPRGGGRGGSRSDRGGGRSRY
# These are yes or no findings as the source states them, for the method shown. In cells and extracts the contact can be indirect. A yes stands for co-enrichment or nearness to the bait. Other partners may have been found.
# Molecular target: Sam68 (Src-associated in mitosis 68 kDa) (human (endogenous in LNCaP)) (UniProt Q07666)
# Assay: affinity purification with mass spectrometry; endogenous Sam68 immunoprecipitated from LNCaP cell nuclear extracts with anti-Sam68 rabbit antisera on Dynabeads Protein A; SDS-PAGE, Coomassie-stained bands excised, trypsin, MALDI-TOF peptide mass fingerprinting, Mascot search
substance,measurement,value
heterogeneous nuclear ribonucleoprotein G (from UniProt P38159 1-391),binding,binds
